Molecules are shown by their SMILES.

The data set can be described thus: heat stability of vinyl chloride polymer sheet at 204° C.

Turning to `CCCCCCC[CH2][Sn]([S]CC(=O)OCCCCCC(C)C)([S]CC(=O)OCCCCCC(C)C)[S]CC(=O)OCCCCCC(C)C` [A, mono-n-octyltin-S,S',S"--tris(isooctyl mercaptoacetate)], the color rating entry is, setting by setting: (after 5 minutes of heating, 204° C) “slight yellowness”; (after 10 minutes of heating, 204° C) “slight yellowness”; (after 15 minutes of heating, 204° C) “yellow”; (after 20 minutes of heating, 204° C) “yellow-brown”; (after 25 minutes of heating, 204° C) “black”; (initial, following milling) “off white”.

Source of the values: patent USRE32935E, “Non-toxic organotin stabilizers for vinyl chloride polymers” (M&T Chemicals, Inc., priority 1985, dated 1989).
